From paper PMC4067742, “Direct Observations of Amyloid β Self-Assembly in Live Cells Provide Insights into Differences in the Kinetics of Aβ(1–40) and Aβ(1–42) Aggregation” (Chemistry & Biology, 2014)

Assay: Fluorescence lifetime imaging (FLIM) of amyloid fibril formation in vitro
Format: physicochemical
Details: free dye
Procedure: We first examined whether a Hilyte Fluor 488 (HF488) dye attached to the N termini of Aβ(1–40) and Aβ(1–42) could act as a reporter of amyloid formation by monitoring how the fluorescence intensity of the dye changes as fibril formation occurs in vitro for each of the two Aβ isoforms. The appearance of fibrillar species was identified by means of dot blot experiments using the conformation-specific antibody LOC ([Kayed et al., 2007]), and the HF488 fluorescence intensity was measured in parallel (Figure 1A; Figure S1 available online). […] This small difference, however, could result from the fact that LOC recognizes fibrillar oligomers as well as amyloid fibrils, whereas the fluorescence quenching is likely to be associated predominately with amyloid fibrils. […] The fluorescence lifetimes in each pixel of these images were obtained by fitting monoexponential decay functions to the observed time-resolved fluorescence decays, and the data and images are shown in Figures 1C and 1D.
All in vitro experiments were performed at a peptide concentration of 5 μM in 50 mM sodium phosphate buffer at pH 7.4. Aggregation kinetics were monitored by steady-state fluorescence in a FLUOstar Optima microplate reader (BMG Labtech) and sealed black Costar half-area, 96-well plates (Corning Life Sciences). […]

For Hilyte Fluor 488 acid [HF488 dye], the “fluorescence lifetime of the unconjugated dye, pH 5.0” value (pH 5.0, mean ± SD) was 4.0 ± 0.1 ns and the “fluorescence lifetime of the unconjugated dye, pH 7.4” value (pH 7.4, mean ± SD) was 4.0 ± 0.1 ns.
